Data as given in PubChem BioAssay AID1224827 (NIAID, 2016).
Test: 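Retest primary hits on a TNF reporter with six siRNAs per gene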 (follow-up of hits). Cell system: RAW264.7 G9 mouse macrophage reporter clone. Reagent: single siRNA against mouse genes, 100 nM siRNA. Timing: siRNA for 2 days, then LPS about 16 h. Challenge: bacterial lipopolysaccharide (LPS), 10 ng/ml, cells fixed after overnight (about 16 h) stimulation. Measured: 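Imaged nuclear TNF reporter intensity, background removed, scaled per plate and to non-targeting control wells, as z-scores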. Direction: TNF reporter z-score, mean: higher = stronger Tnf promoter reporter signal. Rule for the call: 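Active siRNA: replicate-mean z-score of 2 or more, or -2 or less; no calls for control wells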.
In all, the deposit lists about 3,800 reagents; this is an unselected part. Of all reagents, about 2,200 (57%) were called active. 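Active means a strong reporter change in either direction; calls are per siRNA, not per gene; qiagen siRNAs gave weaker effects.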 The numbers tell different reagents against one gene apart. Not all columns of the deposit are shown. Reagent sequences are not shown.

Aprt #1: TNF reporter z-score, mean = -0.777; activity call = inactive
Aprt #2: TNF reporter z-score, mean = -2.7; activity call = active
Aprt #3: TNF reporter z-score, mean = -3.68; activity call = active
Aprt #4: TNF reporter z-score, mean = 2.2; activity call = active
Aprt #5: TNF reporter z-score, mean = 0.223; activity call = inactive
Aprt #6: TNF reporter z-score, mean = -0.212; activity call = inactive
Egfl7 #1: TNF reporter z-score, mean = 4.84; activity call = active
Egfl7 #2: TNF reporter z-score, mean = 1.7; activity call = inactive
Egfl7 #3: TNF reporter z-score, mean = -3.15; activity call = active
Egfl7 #4: TNF reporter z-score, mean = 3.99; activity call = active
Egfl7 #5: TNF reporter z-score, mean = -1.59; activity call = inactive
Egfl7 #6: TNF reporter z-score, mean = -1.07; activity call = inactive

Part of the list above, set out differently:
gene knocked down | siRNA no. | TNF reporter z-score, mean | activity call
Aprt | 5 | 0.223 | inactive
Aprt | 6 | -0.212 | inactive
